Library screening results

Values are the deposited “Percent Effect”, in %. The record does not define 0% and 100%; most values in the screen are far below 50% and negative numbers occur (in some assays of this library far below -100). The compounds are a random part of those screened. Two or more numbers in one place are separate tests of the same structure; such repeats can differ widely.

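Viability assay of Plasmodium falciparum sporozoites; the read-out is not stated. The concentration is filed as 10 mM, unlikely as a test dose, so the dose is not known. The record gives no direction; compounds that gave an IC50 in retests scored well above the rest, so higher reads as lower viability. Strong results were mostly tested again. Of about 34,000 compounds tested this way, about 280 (0.84%) reached 50% or more in at least one test.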

SMILES	percent effect
CN(C)C(CNCc1nc(-c2ccsc2)no1)c1ccco1 (configuration not stated)	19.42%
CCC[C@H]1CN(Cc2ccc3c(c2)OCCO3)C[C@@H]1NC(=O)COC	-7.807%
CNC(=O)c1ccc2c(c1)C1(CCN(C(C)C)CC1)C(=O)N2.O=C(O)C(F)(F)F	-0.7895%
Cc1cnn(CC2CCCN2Cc2coc(-c3ccccc3)n2)c1 (configuration not stated)	1.535%
O=C(c1cccc(F)c1)N1CCOC(c2nc(-c3ncccn3)no2)C1 (configuration not stated)	1.73%
CC(NCCCN1CCCN(C)CC1)C(C)(C)C (configuration not stated)	8.447%
CCc1nnc(CN(CC)C(=O)C2CC(=O)N(C3CCCC3)C2)o1 (configuration not stated)	-8.154%
O=C([C@H]1CCCO1)N1CC[C@H](O)[C@@H]1Cc1cccnc1	-1.216%
CNC(=O)C1CCCN(C(=O)c2ccccc2-n2cc(CN)cn2)C1 (configuration not stated)	-0.3836%
CC(NC(=O)CCC1CCCCC1)c1nnc2n1CCC2 (configuration not stated)	-1.398%
Cc1ncc2c(n1)CN(CC(=O)Nc1nncs1)CC2	-8.394%
COc1ccc(-n2nnc(C(N)=O)n2)cc1	12.44%
O=C1CC(c2ccccc2F)c2c(n3ccsc3nc2=O)N1 (configuration not stated)	-12.72%
Cc1nc(CNCC2CCCN2c2cccnn2)cs1 (configuration not stated)	-6.595%
Cc1cccc(C(=O)NCc2ccc(OCCN(C)C)cc2)c1C	-9.372%
O=C(NCC1CC(=O)N(CCc2ccccc2)C1)c1c(F)cccc1F (configuration not stated)	-8.049%
CCOCC1CN(Cc2ccc(F)cc2)Cc2nn(C)cc21.O=C(O)C(F)(F)F (configuration not stated)	-17.27%
Cc1nccn1C1CCCN(C(=O)c2cc(O)nc3ccccc23)C1 (configuration not stated)	-4.03%
O=C(O)C(F)(F)F.[H][C@@]12C[C@H](c3nc(C)no3)CN(Cc3cccs3)[C@]1([H])CCO2	11.62%
Cc1cccc(C)c1OCC(=O)N1CCOCC1c1ncon1 (configuration not stated)	-1.739% and 13.91% and -2.129%
O=C(O)C(F)(F)F.[H][C@@]12CN(Cc3[nH]cnc3C)C[C@]1([H])OCCN2c1ncccn1	-6.566%
O=C(O)C(F)(F)F.O=C1NCCN(CC2CC2)C12CCN(Cc1ccccc1)CC2	-9.869%
CC(C)c1n[nH]c(C2CN(C(=O)C3=COCC3)CCO2)n1 (configuration not stated)	0.2445%
Cc1cc(C)n(CC2CCCN2C(=O)c2nccc3ccccc23)n1 (configuration not stated)	-8.129%
O=C(CCCNC(=O)Nc1ccc(F)cc1F)Nc1cn[nH]c1	1.665%
[H][C@]12CC[C@]([H])(CN(c3cnccn3)C1)N(C(=O)c1csc(C)c1CC)C2	4.912%
Cc1ccc(CN(C)C(=O)CNC(=O)N2CCc3ccccc3C2)o1	1.19%
O=C(c1ccc(-n2ccnc2)cc1)N1CCCC(n2ccnc2)C1 (configuration not stated)	7.951%
Cn1ccc2ccnc(CC3CN(C(=O)c4cscn4)C3)c21	1.159% and 30.78% and -39.69%
Cc1cc(C(=O)N2CCC(c3nccn3Cc3ccccn3)CC2)no1	-4.825%
[H][C@@]12CN(C(=O)CCO)C[C@]1([H])C(=O)N(c1ccccc1)C2	1.839%
COc1ccc(CN(C)[C@@H]2CN(C(=O)c3cncs3)C[C@H]2O)cc1	1.047%
Cc1ccc2nc(-c3nc4c([nH]3)CC(C)(C)CNC4=O)cn2c1	-22.56% and -11.01% and -9.874%
CN(Cc1ccoc1)C(=O)Cn1ncc(N(C)C)cc1=O	5.077%
NS(=O)(=O)CCCC(=O)N1CCC2(CC1)c1ccccc1CC2O (configuration not stated)	3.772%
COc1cc2c(cc1CN1C[C@@H](CN3CCOCC3)[C@@H](CO)C1)CCC2	0.3286%
Cc1nn(C)cc1CN1CCCC(n2c(=O)oc3ccccc32)C1 (configuration not stated)	3.294%
CCc1cccc(N2CCC(NC(=O)C3CCCO3)CC2)c1 (configuration not stated)	4.913%
CCN(CC1CCCO1)C(=O)Nc1cc(C)ccc1S(C)(=O)=O (configuration not stated)	-5.849%
CCOc1nnc(CN2CCOC(CNc3cccnn3)C2)s1 (configuration not stated)	6.378%
CC(CO)(NC(=O)Nc1nncs1)C1CCCCC1 (configuration not stated)	-9.677%
Cc1ccc(CN2CCC3(CCC(C(=O)N(C)C)O3)CC2)o1.O=C(O)C(F)(F)F (configuration not stated)	10.6%
CN(C)CCCNCCC(c1ccccc1)C1CCOC(C)(C)C1.O=C(O)C(=O)O (configuration not stated)	-8.841% and -13.6%
Cc1nnc(C(NS(=O)(=O)c2cc(F)c(C)cc2F)C(C)C)[nH]1 (configuration not stated)	-6.91%
[H][C@@]12OCCN(C(=O)c3ccncn3)[C@@]1([H])CC[C@@H]2OCc1cccnc1	7.035%
[H][C@@]12CN(CC3CCOCC3)C[C@]1([H])OCCN2c1ccnc(N(C)C)n1	-3.274%
Cc1ncsc1C(=O)N1CCc2nnc(C3CCCCN3C)n2CC1 (configuration not stated)	11.67%
COc1cc(CNCC(O)c2ccc(F)cc2F)cc2c1OCO2 (configuration not stated)	1.184%
O=C(c1ccncc1)N1CCCC(c2cc(C(F)F)n3ncnc3n2)C1 (configuration not stated)	4.907%
Cc1ccc(CN(C)C(=O)CN2CC(n3cccn3)C2)o1	-10.26%
COCCN1CCCC1c1cccc2c1OCCO2 (configuration not stated)	0%
Cc1nccc(CN2CC[C@H](Oc3cccc(F)c3)[C@@](C)(O)C2)n1	2.591%
Cc1ccc(O)c(CN2CCc3nc(-c4cccnc4)nc(O)c3C2)c1	4.318%
CCOc1ccc([C@@H]2N[C@H](c3nccs3)Cc3ccsc32)cc1OC	7.22%
CCCc1nc(CN2CCCCC2Cn2cncn2)cs1 (configuration not stated)	5.465%
Cc1nn(-c2ccccc2)c2c1C(c1ccc(C(=O)O)cc1)CC(=O)N2 (configuration not stated)	-15.67%
COc1ccc2[nH]cc(C(=O)N3C[C@@H](O)[C@H](NS(C)(=O)=O)C3)c2c1	5.12%
CC(C)Cc1noc(CN2CCN(C(=O)c3ccco3)CC2)n1	-15.06%
Cc1nccnc1C1CCN(C2CCCC2O)CC1 (configuration not stated)	6.135%
COCCNc1nnc(-c2ccc(C)nc2)s1	-2.623%
Cc1cccnc1C(=O)N1CCCC(Cc2cncc3ccccc23)C1 (configuration not stated)	0.2181%
O=C(Cc1cccs1)NC1(C(=O)NCC2CC2)CCCC1	9.455%
Cn1nccc1-c1nnn2c1COCC(CNC1CCOCC1)C2.O=C(O)C(F)(F)F.O=C(O)C(F)(F)F (configuration not stated)	4.619%
O=C(CNC(=O)N1CCc2c([nH]c3ccc(Cl)cc23)C1)N1CCOCC1	-25.74% and -4.167% and -18.82%
CCCN1CCC(c2nc3ccc(-c4ccccc4)cn3n2)CC1.O=C(O)C(F)(F)F	-0.6751%
Cc1ccc2c(c1)CCC21CCN(C(=O)CO)CC1	-2.399%
CCOCC(O)CN1CCN(C(=O)c2cccc(CC#N)c2)CC1 (configuration not stated)	-7.61%
Cc1cccc(NC(=O)N2CCN(Cc3nnc(C(C)C)o3)CC2)c1	-15.89%
CN1CCCC(c2cccc(CCC(=O)NCC3(C)COC3)n2)C1 (configuration not stated)	1.399%
COCCN1CCCC(CN(C)c2nc3c(s2)c(C)nn3C)C1 (configuration not stated)	5.586%
COC(=O)c1cc2c(OC)c(C)c(OC)cc2[nH]1	-7.784%
CN(C)CC(C)(O)CNC(=O)Nc1sc2ccccc2c1Cl (configuration not stated)	52.95% and 62.95% and 63.37%
Cc1nc(C(=O)N2CCC(c3nccn3Cc3ccncc3)CC2)cs1	0.2632%
CC1CCN(c2ncc(C#N)c(N)n2)CC1	-17.77%
CNC(=O)CS(=O)(=O)Cc1cc(Cl)c2c(c1)OCCCO2	-0.5757%
CC(C)CN(C)c1ccc(C(=O)N2CCCC2c2cnn(C)c2)cn1 (configuration not stated)	7.253%
Cc1nnc2n1CCN(C(=O)c1cc(Br)c[nH]1)C2	5.55%
COC(=O)N1CC2=CC(C)(C)COc3ccc(OC)c(c32)C1	-35.69%
CN(Cc1ncnn1C1Cc2ccccc2C1)C1CCS(=O)(=O)C1 (configuration not stated)	3.76%
CN(C)C(=O)N1CC(C(=O)NCC2CC2)C2(CCOCC2)C1 (configuration not stated)	-2.452%
Cc1cccc(CN2CCC3(CCCN(Cc4cnn(C)c4)C3)C2)n1.O=C(O)C(F)(F)F.O=C(O)C(F)(F)F (configuration not stated)	-0.6751%
O=C(NCCc1nc(-c2cccnc2)no1)c1ccc(C2CCCO2)s1 (configuration not stated)	42.46% and 42.72% and 31.34%
O=C(O)C(F)(F)F.[H][C@]12CC(=O)N(CC3CC3)[C@@]1([H])CCN2Cc1ccccn1	11.15%
N#Cc1cccc(N2CCCC(CO)(Cc3ccccc3F)C2)n1 (configuration not stated)	12.25%

Some entries from above, unchanged:

* Cc1nn(C)cc1CN1CCCC(n2c(=O)oc3ccccc32)C1 (configuration not stated) : 3.294%
* CCOCC(O)CN1CCN(C(=O)c2cccc(CC#N)c2)CC1 (configuration not stated) : -7.61%
* Cc1ccc(CN(C)C(=O)CNC(=O)N2CCc3ccccc3C2)o1 : 1.19%
* Cc1nnc2n1CCN(C(=O)c1cc(Br)c[nH]1)C2 : 5.55%
* CN(Cc1ncnn1C1Cc2ccccc2C1)C1CCS(=O)(=O)C1 (configuration not stated) : 3.76%
* Cc1ncsc1C(=O)N1CCc2nnc(C3CCCCN3C)n2CC1 (configuration not stated) : 11.67%
* CCOCC1CN(Cc2ccc(F)cc2)Cc2nn(C)cc21.O=C(O)C(F)(F)F (configuration not stated) : -17.27%
* Cc1cccc(C)c1OCC(=O)N1CCOCC1c1ncon1 (configuration not stated) : -1.739% and 13.91% and -2.129%

From ChEMBL document CHEMBL3988442, “University of Dundee, Small-Polar-MMV Screening Library” (2021).